Article PMC6092437
These are yes or no findings as the source states them, for the method shown. Binding seen in cells or lysates may run through a third protein. Some entries that bind do so weakly or less than the wild type.

Protein sequences, listed by entry. Tags and fused reporters are not part of them.
UniProt P48431: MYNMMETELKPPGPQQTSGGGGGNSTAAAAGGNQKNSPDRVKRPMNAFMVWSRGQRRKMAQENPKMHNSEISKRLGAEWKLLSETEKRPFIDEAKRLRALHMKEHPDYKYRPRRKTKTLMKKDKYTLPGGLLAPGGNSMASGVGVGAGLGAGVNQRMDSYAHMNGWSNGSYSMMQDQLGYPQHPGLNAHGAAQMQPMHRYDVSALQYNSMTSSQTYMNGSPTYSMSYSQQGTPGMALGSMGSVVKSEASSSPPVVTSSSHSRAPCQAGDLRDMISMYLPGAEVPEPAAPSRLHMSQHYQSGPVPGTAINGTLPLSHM
UniProt O43474: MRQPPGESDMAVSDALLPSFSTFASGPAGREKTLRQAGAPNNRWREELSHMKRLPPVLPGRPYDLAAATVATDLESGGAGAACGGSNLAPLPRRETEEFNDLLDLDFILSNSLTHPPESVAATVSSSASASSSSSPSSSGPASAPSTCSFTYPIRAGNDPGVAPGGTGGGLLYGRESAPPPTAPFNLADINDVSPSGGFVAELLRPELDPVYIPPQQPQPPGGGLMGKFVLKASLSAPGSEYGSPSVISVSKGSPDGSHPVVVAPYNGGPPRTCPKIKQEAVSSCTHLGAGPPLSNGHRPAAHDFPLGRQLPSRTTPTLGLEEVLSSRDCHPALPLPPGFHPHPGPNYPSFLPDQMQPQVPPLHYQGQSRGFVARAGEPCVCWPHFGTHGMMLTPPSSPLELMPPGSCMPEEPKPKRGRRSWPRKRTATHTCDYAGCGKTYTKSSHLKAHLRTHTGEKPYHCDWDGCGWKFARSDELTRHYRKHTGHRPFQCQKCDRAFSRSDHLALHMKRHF

How the values were obtained:
[1] = target: HA-tagged SOX2 (UniProt P48431); test: co-IP; 293T cells cotransfected with Flag-KLF4 and HA-SOX2 plasmids; cellular extracts subjected to IP and IB with the indicated antibodies
[2] = target: SOX2 (Sex determining region Y-box 2), endogenous (human (endogenous in CNE2 and HNE-1)) (UniProt P48431); test: co-IP; cellular extracts of CNE2 and HNE-1 cells; IP with SOX2 antibody or control IgG and IB with KLF4 antibody; reciprocal IP with KLF4 antibody or control IgG and IB with SOX2 antibody

binding [1]	binding [2]	Substance
binds	–	Flag-KLF4 (from UniProt O43474 1-513)
–	binds	Krüppel-like factor 4 (KLF4), endogenous (from UniProt O43474 1-513)
